Measurements published in the supplement of paper PMC12823440, “Inhibitors supercharge kinase turnover through native proteolytic circuits” (Nature, 2025).
Where a name gives a salt, the structure may show the parent alone. The list shows a part of the results. Hit calls seldom repeat between salt and free forms of one compound.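 In K562 cells expressing nanoluciferase-fused kinases, luminescence was recorded at 4 h intervals between 2 and 18 h, normalized as percent of control with DMSO at 100% and a positive control at 0%. A significant (2 sigma) signal drop marks a time point as decreased. The authors' rule for a hit is not shown and takes in more than the number of time points.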

Protein sequences, listed by entry. Tags and fused reporters are not part of them. Lines headed by an entry give the natural chain unless they say otherwise; changes in a name come on top.
UniProt Q06187: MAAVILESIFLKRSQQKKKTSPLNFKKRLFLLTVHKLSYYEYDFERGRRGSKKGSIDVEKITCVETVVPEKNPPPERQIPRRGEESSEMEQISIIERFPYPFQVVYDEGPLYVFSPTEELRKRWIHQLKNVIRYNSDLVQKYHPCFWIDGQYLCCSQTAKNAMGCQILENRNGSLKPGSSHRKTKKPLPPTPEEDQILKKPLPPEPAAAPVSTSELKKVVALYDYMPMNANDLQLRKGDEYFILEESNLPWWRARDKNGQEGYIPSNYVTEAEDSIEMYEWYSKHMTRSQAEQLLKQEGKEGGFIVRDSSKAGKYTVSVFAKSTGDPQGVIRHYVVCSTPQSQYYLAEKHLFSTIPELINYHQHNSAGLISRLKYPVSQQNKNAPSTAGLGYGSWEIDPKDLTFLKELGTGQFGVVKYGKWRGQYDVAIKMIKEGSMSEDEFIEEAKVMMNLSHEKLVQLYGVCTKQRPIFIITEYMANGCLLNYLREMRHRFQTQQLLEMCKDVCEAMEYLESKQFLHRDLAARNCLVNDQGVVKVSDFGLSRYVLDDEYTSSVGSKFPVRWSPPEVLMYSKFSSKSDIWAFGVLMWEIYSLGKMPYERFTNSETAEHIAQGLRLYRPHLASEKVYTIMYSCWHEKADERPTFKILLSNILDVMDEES
UniProt Q9UQM7, whole entry: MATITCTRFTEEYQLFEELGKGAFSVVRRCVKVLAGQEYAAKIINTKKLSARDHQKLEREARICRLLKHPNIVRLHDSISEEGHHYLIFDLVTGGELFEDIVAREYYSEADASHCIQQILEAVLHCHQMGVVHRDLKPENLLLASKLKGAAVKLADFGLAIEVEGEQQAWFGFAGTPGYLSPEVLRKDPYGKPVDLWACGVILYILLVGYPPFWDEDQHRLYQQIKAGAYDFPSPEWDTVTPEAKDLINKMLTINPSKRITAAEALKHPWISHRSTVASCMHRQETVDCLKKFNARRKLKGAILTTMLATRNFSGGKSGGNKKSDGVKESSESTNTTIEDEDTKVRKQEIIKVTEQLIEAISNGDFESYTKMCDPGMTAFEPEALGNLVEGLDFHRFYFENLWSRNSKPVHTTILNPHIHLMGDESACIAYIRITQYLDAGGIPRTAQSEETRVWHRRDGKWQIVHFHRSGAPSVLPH
UniProt Q13555: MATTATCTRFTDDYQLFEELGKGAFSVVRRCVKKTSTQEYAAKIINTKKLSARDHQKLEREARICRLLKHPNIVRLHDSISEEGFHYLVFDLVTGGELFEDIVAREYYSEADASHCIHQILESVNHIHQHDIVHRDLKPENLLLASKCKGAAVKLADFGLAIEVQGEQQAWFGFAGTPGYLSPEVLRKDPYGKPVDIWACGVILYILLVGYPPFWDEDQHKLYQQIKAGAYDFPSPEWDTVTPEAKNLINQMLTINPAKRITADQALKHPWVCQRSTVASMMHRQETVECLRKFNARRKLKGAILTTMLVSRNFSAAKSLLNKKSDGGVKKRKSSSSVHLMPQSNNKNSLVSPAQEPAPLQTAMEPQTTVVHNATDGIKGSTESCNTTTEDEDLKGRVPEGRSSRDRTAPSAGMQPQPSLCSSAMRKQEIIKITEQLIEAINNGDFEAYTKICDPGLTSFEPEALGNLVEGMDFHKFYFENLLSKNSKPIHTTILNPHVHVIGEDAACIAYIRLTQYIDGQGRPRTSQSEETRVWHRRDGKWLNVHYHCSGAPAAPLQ
UniProt Q15131: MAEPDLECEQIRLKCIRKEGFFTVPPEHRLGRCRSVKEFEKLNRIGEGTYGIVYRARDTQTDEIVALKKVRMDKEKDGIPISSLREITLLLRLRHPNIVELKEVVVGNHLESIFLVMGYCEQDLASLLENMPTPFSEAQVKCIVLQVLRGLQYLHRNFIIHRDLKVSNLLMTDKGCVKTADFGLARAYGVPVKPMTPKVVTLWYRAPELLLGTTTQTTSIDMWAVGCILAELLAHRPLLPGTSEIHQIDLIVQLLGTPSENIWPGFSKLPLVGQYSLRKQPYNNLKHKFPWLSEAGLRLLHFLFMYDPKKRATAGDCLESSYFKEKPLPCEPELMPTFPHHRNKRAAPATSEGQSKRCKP
UniProt Q00526: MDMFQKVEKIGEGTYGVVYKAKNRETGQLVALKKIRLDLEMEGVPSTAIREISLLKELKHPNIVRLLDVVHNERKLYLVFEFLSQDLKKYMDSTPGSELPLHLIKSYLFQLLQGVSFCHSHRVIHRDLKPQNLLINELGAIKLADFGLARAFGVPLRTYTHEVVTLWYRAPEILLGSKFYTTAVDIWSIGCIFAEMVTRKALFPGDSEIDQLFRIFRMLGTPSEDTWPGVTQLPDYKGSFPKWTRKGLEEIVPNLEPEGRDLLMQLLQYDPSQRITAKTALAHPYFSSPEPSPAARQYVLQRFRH
UniProt P11802: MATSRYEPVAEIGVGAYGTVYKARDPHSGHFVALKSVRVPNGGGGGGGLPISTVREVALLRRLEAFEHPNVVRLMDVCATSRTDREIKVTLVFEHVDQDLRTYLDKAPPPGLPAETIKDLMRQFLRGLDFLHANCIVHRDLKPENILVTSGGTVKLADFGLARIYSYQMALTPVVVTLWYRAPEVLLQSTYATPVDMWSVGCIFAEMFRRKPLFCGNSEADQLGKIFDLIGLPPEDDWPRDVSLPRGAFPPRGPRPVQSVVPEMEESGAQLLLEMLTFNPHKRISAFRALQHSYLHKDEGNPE
UniProt Q00535, whole entry, looked up: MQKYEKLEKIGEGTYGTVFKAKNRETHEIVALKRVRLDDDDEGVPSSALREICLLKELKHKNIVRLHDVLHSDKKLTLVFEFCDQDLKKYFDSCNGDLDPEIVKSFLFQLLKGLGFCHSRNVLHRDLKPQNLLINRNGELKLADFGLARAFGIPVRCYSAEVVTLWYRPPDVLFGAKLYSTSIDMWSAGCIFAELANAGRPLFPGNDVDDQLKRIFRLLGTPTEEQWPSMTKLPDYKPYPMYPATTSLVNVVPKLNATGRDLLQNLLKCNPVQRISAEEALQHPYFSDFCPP
UniProt Q00534, whole entry: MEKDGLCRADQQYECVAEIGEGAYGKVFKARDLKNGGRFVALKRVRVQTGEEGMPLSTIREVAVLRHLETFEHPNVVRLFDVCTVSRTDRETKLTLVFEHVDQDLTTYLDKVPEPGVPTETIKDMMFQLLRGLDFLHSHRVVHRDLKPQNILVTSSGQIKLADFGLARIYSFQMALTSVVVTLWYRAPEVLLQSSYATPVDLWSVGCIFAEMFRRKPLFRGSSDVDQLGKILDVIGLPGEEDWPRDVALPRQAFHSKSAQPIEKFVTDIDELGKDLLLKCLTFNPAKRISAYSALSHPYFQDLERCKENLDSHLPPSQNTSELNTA

Columns and labels:
Test in all cases: kinase-Nluc reporter destabilization hit call (1 = scored as downregulated) (binary); higher = compound decreases kinase abundance
Conditions in all cases: K562; 2-18 h
[1] = system: BRAF_V600E
[2] = target: BTK (UniProt Q06187)
[3] = target: CAMK2A (UniProt Q9UQM7)
[4] = target: CAMK2G (UniProt Q13555)
[5] = target: CDK10 (UniProt Q15131)
[6] = target: CDK2 (UniProt P24941)
[7] = target: CDK3 (UniProt Q00526)
[8] = target: CDK4 (UniProt P11802)
[9] = target: CDK5 (UniProt Q00535)
[10] = target: CDK6 (UniProt Q00534)

Measured: kinase-Nluc reporter destabilization hit call

C[C@H](CC[C@@H](O)C(C)(C)O)[C@H]1CC[C@@]2(C)[C@@H]3CC=C4[C@@H](CC[C@H](O)C4(C)C)[C@]3(C)[C@H](O)C[C@]12C [Mogrol] (10 µM)
inactive: [1] 0 | [2] 0 | [3] 0 | [4] 0 | [5] 0 | [6] 0 | [7] 0 | [8] 0 | [9] 0 | [10] 0

CC(=O)NCC(=O)N[C@@H](C)C(=O)N[C@@H](CCC(N)=O)C(=O)N[C@@H](Cc1ccccc1)C(=O)N[C@@H](CO)C(=O)N[C@@H](CCCCN)C(=O)N[C@H](C(=O)N[C@@H](C)C(=O)N[C@@H](C)C(=O)N[C@@H](CCCCN)C(=O)O)[C@@H](C)O (10 µM)
inactive: [1] 0 | [2] 0 | [3] 0 | [4] 0 | [5] 0 | [6] 0 | [7] 0 | [8] 0 | [9] 0 | [10] 0

COc1cc(/C=C/c2ccc(NC(=O)/C=C/c3cc(OC)c(OC)c(OC)c3)cc2)cc(OC)c1 (2.5 µM)
inactive: [1] 0 | [2] 0 | [3] 0 | [4] 0 | [5] 0 | [6] 0 | [7] 0 | [8] 0 | [9] 0 | [10] 0

CC(C)Cn1cc(C#N)c2cc(Oc3ccc(NC(=O)[C@@H]4CCCN4)cc3)ccc21 (10 µM)
inactive: [1] 0 | [2] 0 | [3] 0 | [4] 0 | [5] 0 | [6] 0 | [7] 0 | [8] 0 | [9] 0 | [10] 0

O=c1ccc2cc(O)c(O)cc2o1 [Esculetin] (10 µM)
inactive: [1] 0 | [2] 0 | [3] 0 | [4] 0 | [5] 0 | [6] 0 | [7] 0 | [8] 0 | [9] 0 | [10] 0

C=C[C@H]1[C@H](O[C@@H]2O[C@H](CO)[C@@H](O)[C@H](O)[C@H]2O)OC=C(C(=O)OC)[C@H]1CCOC(=O)c1cc(O)c(O)c(O)c1 [Cornuside] (10 µM)
inactive: [1] 0 | [2] 0 | [3] 0 | [4] 0 | [5] 0 | [6] 0 | [7] 0 | [8] 0 | [9] 0 | [10] 0

Clc1ccc(Nc2cccc(-c3cn[nH]c3)c2)cc1 (10 µM)
inactive: [1] 0 | [2] 0 | [3] 0 | [4] 0 | [5] 0 | [6] 0 | [7] 0 | [8] 0 | [9] 0 | [10] 0

COc1ccc(-c2cnc3c(-c4cccc5ncccc45)cnn3c2)cc1 (10 µM)
inactive: [1] 0 | [2] 0 | [3] 0 | [4] 0 | [5] 0 | [6] 0 | [7] 0 | [8] 0 | [9] 0 | [10] 0

N#C/C(=C\c1ccc[nH]1)c1ccc(Cl)c(Cl)c1 (2.5 µM)
inactive: [1] 0 | [2] 0 | [3] 0 | [4] 0 | [5] 0 | [6] 0 | [7] 0 | [8] 0 | [9] 0 | [10] 0

Cc1c(Br)c(Br)c2c3c1nc(N1CCNCC1)n3CCC2 [SEL120-34A (monohydrochloride)] (2.5 µM)
inactive: [1] 0 | [2] 0 | [3] 0 | [4] 0 | [5] 0 | [6] 0 | [7] 0 | [8] 0 | [9] 0 | [10] 0

O=C(Nc1ncc(SCCN2CCCC2)s1)[C@]1(c2ccc(S(=O)(=O)C3CC3)cc2)C[C@H]1C1CCCCC1 [Globalagliatin] (2.5 µM)
inactive: [1] 0 | [2] 0 | [3] 0 | [4] 0 | [5] 0 | [6] 0 | [7] 0 | [8] 0 | [9] 0 | [10] 0

O=c1cc(-c2ccc(O)cc2)oc2cc(O)c([C@@H]3O[C@H](CO)[C@@H](O)[C@H](O)[C@H]3O)c(O)c12 [Isovitexin] (10 µM)
inactive: [1] 0 | [2] 0 | [3] 0 | [4] 0 | [5] 0 | [6] 0 | [7] 0 | [8] 0 | [9] 0 | [10] 0

O=C(Nc1cc(Cl)cc(Cl)c1)Nc1cc(Cl)cc(Cl)c1 (10 µM)
inactive: [1] 0 | [2] 0 | [3] 0 | [4] 0 | [5] 0 | [6] 0 | [7] 0 | [8] 0 | [9] 0 | [10] 0

CC(C)(C)S(=O)(=O)c1ccc2nccc(Nc3n[nH]c4ccc(F)cc34)c2c1 (10 µM)
inactive: [1] 0 | [2] 0 | [3] 0 | [4] 0 | [5] 0 | [6] 0 | [7] 0 | [8] 0 | [9] 0 | [10] 0

CCS(=O)(=O)c1ccc(Oc2cc(O[C@@H](C)CO)cc(C(=O)Nc3ccn(C)n3)c2)cn1 (10 µM)
inactive: [1] 0 | [2] 0 | [3] 0 | [4] 0 | [5] 0 | [6] 0 | [7] 0 | [8] 0 | [9] 0 | [10] 0

CC(C)c1cnn2c(NCc3ccccc3)cc(NCCCCCCN)nc12 [BS-181 (hydrochloride)] (10 µM)
inactive: [1] 0 | [2] 0 | [3] 0 | [4] 0 | [5] 0 | [6] 0 | [7] 0 | [8] 0 | [9] 0 | [10] 0

COc1ccc(COc2cc3oc(=O)c4cc(C(C)O)ccc4c3cc2OC)cc1 (stereo not given) [Palomid 529] (2.5 µM)
inactive: [1] 0 | [2] 0 | [3] 0 | [4] 0 | [5] 0 | [6] 0 | [7] 0 | [8] 0 | [9] 0 | [10] 0

O=C(O)/C=C/c1cc(Br)c(Br)c(Br)c1Br (10 µM)
inactive: [1] 0 | [2] 0 | [3] 0 | [4] 0 | [5] 0 | [6] 0 | [7] 0 | [8] 0 | [9] 0 | [10] 0

NC(=O)c1nc(-c2c(F)cccc2Cl)oc1Nc1ccc(C(=O)N2CCOCC2)cc1 (10 µM)
inactive: [1] 0 | [2] 0 | [3] 0 | [4] 0 | [5] 0 | [6] 0 | [7] 0 | [8] 0 | [9] 0 | [10] 0

CC[C@H](C)[C@@H]1NC(=O)[C@@H]2CCCN2C(=O)[C@@H]2CCCN2C(=O)[C@@H]2CCCN2C(=O)[C@H](CC(C)C)NC(=O)CNC(=O)CNC(=O)[C@H](Cc2ccccc2)NC1=O [Heterophyllin B] (10 µM)
inactive: [1] 0 | [2] 0 | [3] 0 | [4] 0 | [5] 0 | [6] 0 | [7] 0 | [8] 0 | [9] 0 | [10] 0

CS(=O)(=O)N1CCc2c(-c3cnc(N)nc3)nc(N3CCOCC3)nc21 (10 µM)
inactive: [1] 0 | [2] 0 | [3] 0 | [4] 0 | [5] 0 | [6] 0 | [7] 0 | [8] 0 | [9] 0 | [10] 0

O=C(Nc1nccs1)C(c1cc(F)ccc1O)N1Cc2ccc(-c3ccc(N4CCNCC4)cc3)cc2C1=O (racemic) (10 µM)
inactive: [1] 0 | [2] 0 | [3] 0 | [4] 0 | [5] 0 | [6] 0 | [7] 0 | [8] 0 | [9] 0 | [10] 0

Cn1cc(C2=C(c3c4n(c5ccccc35)CCC(CN)C4)C(=O)NC2=O)c2ccccc21 (stereo not given) [Bisindolylmaleimide X (hydrochloride)] (2.5 µM)
inactive: [1] 0 | [2] 0 | [3] 0 | [4] 0 | [5] 0 | [6] 0 | [7] 0 | [8] 0 | [9] 0 | [10] 0

N#Cc1cn([C@@H]2O[C@H](CO)[C@@H](O)[C@H]2O)c2nc[nH]c(=O)c12 [Jaspamycin] (10 µM)
inactive: [1] 0 | [2] 0 | [3] 0 | [4] 0 | [5] 0 | [6] 0 | [7] 0 | [8] 0 | [9] 0 | [10] 0

CC(C)(C)c1ccc(C(=O)Nc2cn3cc(-n4ccnc4)ccc3n2)cc1 (10 µM)
inactive: [1] 0 | [2] 0 | [3] 0 | [4] 0 | [5] 0 | [6] 0 | [7] 0 | [8] 0 | [9] 0 | [10] 0

COc1ccc(C2CC(c3ccc(Cl)cc3)=NN2c2nc(-c3ccncc3)cs2)cc1 (stereo not given) [mTOR inhibitor-8] (10 µM)
inactive: [1] 0 | [2] 0 | [3] 0 | [4] 0 | [5] 0 | [6] 0 | [7] 0 | [8] 0 | [9] 0 | [10] 0

N#Cc1c[nH]c2ccc(-c3ccc(-c4c(O)cccc4O)cc3)cc12 (10 µM)
inactive: [1] 0 | [2] 0 | [3] 0 | [4] 0 | [5] 0 | [6] 0 | [7] 0 | [8] 0 | [9] 0 | [10] 0

CNC(=O)Nc1cc(Oc2cncc(C)c2)c(-c2ccc(OCC(C)(C)O)nc2)cn1 (2.5 µM)
inactive: [1] 0 | [2] 0 | [3] 0 | [4] 0 | [5] 0 | [6] 0 | [7] 0 | [8] 0 | [9] 0 | [10] 0
